According to article PMC7060178:
Numbering of substitutions follows the chain as printed. These are yes or no findings as the source states them, for the method shown. In cells and extracts the contact can be indirect. Some results given as binding are weak or reduced against the parent protein; the word gives no strength. Sequences can lack the tags named with a protein.

What was measured:
Experiment in all cases: co-IP; HEK293 cells co-transfected with β-arrestin 2 and GPR110-HA (WT or mutants) for 24 h; treated with 10 nM synaptamide or DMSO for 5 or 10 min; lysed in buffer with 1% Triton; immunoprecipitation with HA antibody; blots with anti-HA and anti-β-arrestin
[1] = target: T1, GPR110-HA double mutant N512A/Y513A (human) (UniProt Q5T601)
T1 sequence: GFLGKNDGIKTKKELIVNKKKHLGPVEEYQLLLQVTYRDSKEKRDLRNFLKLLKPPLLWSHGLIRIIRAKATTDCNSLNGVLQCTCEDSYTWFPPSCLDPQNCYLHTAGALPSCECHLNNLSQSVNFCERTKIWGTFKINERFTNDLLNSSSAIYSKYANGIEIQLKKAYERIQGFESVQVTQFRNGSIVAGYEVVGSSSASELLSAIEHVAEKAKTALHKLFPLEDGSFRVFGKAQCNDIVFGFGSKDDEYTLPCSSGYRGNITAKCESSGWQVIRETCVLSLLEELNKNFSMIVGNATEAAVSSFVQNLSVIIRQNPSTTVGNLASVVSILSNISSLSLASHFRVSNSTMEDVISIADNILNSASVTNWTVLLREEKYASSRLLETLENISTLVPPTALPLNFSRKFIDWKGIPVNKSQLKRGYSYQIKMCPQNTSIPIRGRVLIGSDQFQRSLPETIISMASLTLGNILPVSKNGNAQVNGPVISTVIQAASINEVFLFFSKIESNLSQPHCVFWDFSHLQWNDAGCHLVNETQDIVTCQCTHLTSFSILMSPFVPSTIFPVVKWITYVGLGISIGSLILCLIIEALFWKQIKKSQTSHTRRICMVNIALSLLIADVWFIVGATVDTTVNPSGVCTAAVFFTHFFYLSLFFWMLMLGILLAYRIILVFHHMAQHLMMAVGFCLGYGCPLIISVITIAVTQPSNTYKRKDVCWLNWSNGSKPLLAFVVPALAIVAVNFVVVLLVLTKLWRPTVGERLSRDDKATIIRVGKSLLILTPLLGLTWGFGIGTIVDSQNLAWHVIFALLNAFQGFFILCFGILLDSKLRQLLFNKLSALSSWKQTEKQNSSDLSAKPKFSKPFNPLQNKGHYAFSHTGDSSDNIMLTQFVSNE

[2] = target: T2, GPR110-HA double mutant Q511A/N512A (human) (UniProt Q5T601)
T2 sequence: T1 sequence with Q492A, A494Y

[3] = target: T3, C-terminal HA-tagged human GPR110 (GPR110-HA), wild type (human) (UniProt Q5T601)
T3 sequence: T1 sequence with A493N, A494Y

binding [1]: no binding
binding [2]: no binding
binding [3]: binds
Substance: β-arrestin 2 (variant 1) (from UniProt P32121 1-409)
